# Assay results published in the supplement of paper PMC7661543.
# ± gives the standard deviation of the averaged measurements. The effect of the compound repeats well; differences between the knockouts mostly do not.
# Tested on: MDA-MB-231
# Experiment: relative cell number vs DMSO control (72 h) (% of DMSO); higher = less growth inhibition (more cells)
# Description: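 QMAP-Seq: a pool of 5 breast cancer cell lines (ZR-75-1, SKBR3, HCC-38, MDA-MB-231, BT-20), each carrying 12 doxycycline-inducible Cas9 sgRNA perturbations (11 knockouts plus non-targeting sgNT), was treated with compounds for 72 h at four 10-fold doses (10 nM-10 uM or 1 nM-1 uM range). Barcodes were amplified and sequenced, and cell number was interpolated from 293T spike-in standard curves. The result is expressed as % of the median of DMSO wells. Two biological replicates.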
# [1] = sgRNA knockout: sgATF3, 1000 nM
# [2] = sgRNA knockout: sgATF4, 1000 nM
# [3] = sgRNA knockout: sgATF6, 1000 nM
# [4] = sgRNA knockout: sgATG7, 1000 nM
# [5] = sgRNA knockout: sgERN1, 1000 nM
# [6] = sgRNA knockout: sgHSF1, 1000 nM
# [7] = sgRNA knockout: sgHSF2, 1000 nM
# [8] = sgRNA knockout: sgKEAP1, 100 nM
# [9] = sgRNA knockout: sgKEAP1, 1000 nM
# [10] = sgRNA knockout: sgNFE2L2, 10 nM
# [11] = sgRNA knockout: sgNFE2L2, 100 nM
# [12] = sgRNA knockout: sgNFE2L2, 1000 nM
# [13] = sgRNA knockout: sgSLC35F2, 10 nM
# [14] = sgRNA knockout: sgSLC35F2, 100 nM
# [15] = sgRNA knockout: sgSLC35F2, 1000 nM
# [16] = sgRNA knockout: sgXBP1, 1000 nM
# [17] = sgRNA knockout: sgATF3, 10000 nM
# [18] = sgRNA knockout: sgATF4, 10000 nM
# [19] = sgRNA knockout: sgATF6, 10000 nM
# [20] = sgRNA knockout: sgATG7, 10000 nM
# [21] = sgRNA knockout: sgERN1, 10000 nM
# [22] = sgRNA knockout: sgHSF1, 10000 nM
# [23] = sgRNA knockout: sgHSF2, 10000 nM
# [24] = sgRNA knockout: sgKEAP1, 10000 nM
# [25] = sgRNA knockout: sgNFE2L2, 10000 nM
# [26] = sgRNA knockout: sgSLC35F2, 10000 nM
# [27] = sgRNA knockout: sgXBP1, 10000 nM
smiles,measurement,setting,value
CO[C@H]1C[C@@H]2CC[C@@H](C)[C@@](O)(O2)C(=O)C(=O)N2CCCC[C@H]2C(=O)O[C@H]([C@H](C)C[C@@H]2CC[C@@H](OCCO)[C@H](OC)C2)CC(=O)[C@H](C)/C=C(\C)[C@@H](O)[C@@H](OC)C(=O)[C@H](C)C[C@H](C)/C=C/C=C/C=C/1C [Everolimus],relative cell number,"sgRNA knockout: sgATF3, 1 nM",90.5 ± 6
same,relative cell number,"sgRNA knockout: sgATF3, 10 nM",74.9 ± 7.7
same,relative cell number,"sgRNA knockout: sgATF3, 100 nM",78.7 ± 18
same,relative cell number,[1],94.4 ± 17
same,relative cell number,"sgRNA knockout: sgATF4, 1 nM",87.6 ± 26
same,relative cell number,"sgRNA knockout: sgATF4, 10 nM",54.3 ± 22
same,relative cell number,"sgRNA knockout: sgATF4, 100 nM",80.1 ± 4.9
same,relative cell number,[2],99 ± 8.1
same,relative cell number,"sgRNA knockout: sgATF6, 1 nM",82.7 ± 16
same,relative cell number,"sgRNA knockout: sgATF6, 10 nM",53.01 ± 0.46
same,relative cell number,"sgRNA knockout: sgATF6, 100 nM",108 ± 18
same,relative cell number,[3],91.2 ± 1.1
same,relative cell number,"sgRNA knockout: sgATG7, 1 nM",65.2 ± 4
same,relative cell number,"sgRNA knockout: sgATG7, 10 nM",62.5 ± 3.4
same,relative cell number,"sgRNA knockout: sgATG7, 100 nM",72.9 ± 4.4
same,relative cell number,[4],68.4 ± 17
same,relative cell number,"sgRNA knockout: sgERN1, 1 nM",80 ± 21
same,relative cell number,"sgRNA knockout: sgERN1, 10 nM",77.9 ± 16
same,relative cell number,"sgRNA knockout: sgERN1, 100 nM",72.5 ± 3.9
same,relative cell number,[5],62 ± 0.93
same,relative cell number,"sgRNA knockout: sgHSF1, 1 nM",65.7 ± 10
same,relative cell number,"sgRNA knockout: sgHSF1, 10 nM",74 ± 15
same,relative cell number,"sgRNA knockout: sgHSF1, 100 nM",83.5 ± 2.5
same,relative cell number,[6],82.7 ± 8.5
same,relative cell number,"sgRNA knockout: sgHSF2, 1 nM",78.6 ± 25
same,relative cell number,"sgRNA knockout: sgHSF2, 10 nM",72.19 ± 0.42
same,relative cell number,"sgRNA knockout: sgHSF2, 100 nM",92.8 ± 4.4
same,relative cell number,[7],80.89 ± 0.3
same,relative cell number,"sgRNA knockout: sgKEAP1, 1 nM",73.5 ± 2.8
same,relative cell number,"sgRNA knockout: sgKEAP1, 10 nM",64.6 ± 8.1
same,relative cell number,[8],80.1 ± 5.1
same,relative cell number,[9],90.4 ± 11
same,relative cell number,"sgRNA knockout: sgNFE2L2, 1 nM",77.2 ± 4.5
same,relative cell number,[10],57.3 ± 9.1
same,relative cell number,[11],83.9 ± 4.9
same,relative cell number,[12],83.1 ± 46
same,relative cell number,"sgRNA knockout: sgSLC35F2, 1 nM",83.8 ± 21
same,relative cell number,[13],84.6 ± 11
same,relative cell number,[14],103 ± 4.2
same,relative cell number,[15],76.9 ± 7.6
same,relative cell number,"sgRNA knockout: sgXBP1, 1 nM",73.86 ± 0.16
same,relative cell number,"sgRNA knockout: sgXBP1, 10 nM",63.5 ± 6.7
same,relative cell number,"sgRNA knockout: sgXBP1, 100 nM",87.9 ± 7.8
same,relative cell number,[16],75.4 ± 6.2
Nc1nc(OCc2cc(Br)cs2)c2[nH]cnc2n1 [Lomeguatrib],relative cell number,"sgRNA knockout: sgATF3, 10 nM",115 ± 14
same,relative cell number,"sgRNA knockout: sgATF3, 100 nM",107 ± 11
same,relative cell number,[1],104 ± 1.1
same,relative cell number,[17],93.1 ± 18
same,relative cell number,"sgRNA knockout: sgATF4, 10 nM",101 ± 12
same,relative cell number,"sgRNA knockout: sgATF4, 100 nM",142 ± 15
same,relative cell number,[2],108 ± 17
same,relative cell number,[18],82.3 ± 3.2
same,relative cell number,"sgRNA knockout: sgATF6, 10 nM",115 ± 49
same,relative cell number,"sgRNA knockout: sgATF6, 100 nM",105 ± 19
same,relative cell number,[3],109 ± 17
same,relative cell number,[19],88.4 ± 9.8
same,relative cell number,"sgRNA knockout: sgATG7, 10 nM",93.1 ± 19
same,relative cell number,"sgRNA knockout: sgATG7, 100 nM",90.7 ± 10
same,relative cell number,[4],104 ± 13
same,relative cell number,[20],86.9 ± 8.3
same,relative cell number,"sgRNA knockout: sgERN1, 10 nM",82.3 ± 19
same,relative cell number,"sgRNA knockout: sgERN1, 100 nM",85.8 ± 17
same,relative cell number,[5],83.6 ± 4.9
same,relative cell number,[21],92.2 ± 6.3
same,relative cell number,"sgRNA knockout: sgHSF1, 10 nM",97.2 ± 5.2
same,relative cell number,"sgRNA knockout: sgHSF1, 100 nM",117 ± 20
same,relative cell number,[6],84.8 ± 1.9
same,relative cell number,[22],98.8 ± 10
same,relative cell number,"sgRNA knockout: sgHSF2, 10 nM",94.6 ± 9.9
same,relative cell number,"sgRNA knockout: sgHSF2, 100 nM",96.4 ± 9.3
same,relative cell number,[7],96.5 ± 14
same,relative cell number,[23],76.7 ± 7.8
same,relative cell number,"sgRNA knockout: sgKEAP1, 10 nM",110 ± 26
same,relative cell number,[8],120 ± 13
same,relative cell number,[9],100 ± 5.7
same,relative cell number,[24],94.3 ± 3.5
same,relative cell number,[10],109 ± 11
same,relative cell number,[11],89.3 ± 3.5
same,relative cell number,[12],95.9 ± 7
same,relative cell number,[25],99.7 ± 5.5
same,relative cell number,[13],89.9 ± 12
same,relative cell number,[14],112 ± 1.9
same,relative cell number,[15],99.2 ± 19
same,relative cell number,[26],86.5 ± 20
same,relative cell number,"sgRNA knockout: sgXBP1, 10 nM",100 ± 6.2
same,relative cell number,"sgRNA knockout: sgXBP1, 100 nM",109 ± 26
same,relative cell number,[16],91.3 ± 34
same,relative cell number,[27],79.841 ± 0.053
CC(C)n1c(/C=C/C(O)CC(O)CC(=O)O)c(-c2ccc(F)cc2)c2ccccc21 (configuration not stated) [Fluvastatin],relative cell number,"sgRNA knockout: sgATF3, 10 nM",84.3 ± 22
same,relative cell number,"sgRNA knockout: sgATF3, 100 nM",94.9 ± 5.2
same,relative cell number,[1],32.3 ± 14
same,relative cell number,[17],15.7 ± 1.4
same,relative cell number,"sgRNA knockout: sgATF4, 10 nM",85.5 ± 9.9
same,relative cell number,"sgRNA knockout: sgATF4, 100 nM",114 ± 13
same,relative cell number,[2],35 ± 5.7
same,relative cell number,[18],27.2 ± 14
same,relative cell number,"sgRNA knockout: sgATF6, 10 nM",67.9 ± 7.4
same,relative cell number,"sgRNA knockout: sgATF6, 100 nM",87.4 ± 32
same,relative cell number,[3],35.7 ± 6.8
same,relative cell number,[19],17.1 ± 0.79
same,relative cell number,"sgRNA knockout: sgATG7, 10 nM",98.6 ± 16
same,relative cell number,"sgRNA knockout: sgATG7, 100 nM",98.9 ± 32
same,relative cell number,[4],30.8 ± 3.7
same,relative cell number,[20],13.8 ± 1.3
same,relative cell number,"sgRNA knockout: sgERN1, 10 nM",84 ± 4.5
same,relative cell number,"sgRNA knockout: sgERN1, 100 nM",95.8 ± 1.6
same,relative cell number,[5],39.3 ± 3.3
same,relative cell number,[21],13 ± 6.9
same,relative cell number,"sgRNA knockout: sgHSF1, 10 nM",60 ± 13
same,relative cell number,"sgRNA knockout: sgHSF1, 100 nM",67.6 ± 16
same,relative cell number,[6],33.9 ± 13
same,relative cell number,[22],18.9 ± 4.8
same,relative cell number,"sgRNA knockout: sgHSF2, 10 nM",97.6 ± 20
same,relative cell number,"sgRNA knockout: sgHSF2, 100 nM",105 ± 12
same,relative cell number,[7],32.4 ± 7.6
same,relative cell number,[23],17.1 ± 14
same,relative cell number,"sgRNA knockout: sgKEAP1, 10 nM",100 ± 9.5
same,relative cell number,[8],94.5 ± 15
same,relative cell number,[9],46.5 ± 7.5
same,relative cell number,[24],20.6 ± 1.6
same,relative cell number,[10],82.3 ± 24
same,relative cell number,[11],106 ± 2.3
same,relative cell number,[12],33.1 ± 3.8
same,relative cell number,[25],17.9 ± 9.3
same,relative cell number,[13],87.2 ± 25
same,relative cell number,[14],93.9 ± 14
same,relative cell number,[15],32.8 ± 4.2
same,relative cell number,[26],16.8 ± 11
same,relative cell number,"sgRNA knockout: sgXBP1, 10 nM",116 ± 15
same,relative cell number,"sgRNA knockout: sgXBP1, 100 nM",82.6 ± 6.6
same,relative cell number,[16],26.3 ± 5.5
same,relative cell number,[27],21.6 ± 7.8

# An excerpt of these results, as tab-separated lines:
smiles	measurement	setting	value
CO[C@H]1C[C@@H]2CC[C@@H](C)[C@@](O)(O2)C(=O)C(=O)N2CCCC[C@H]2C(=O)O[C@H]([C@H](C)C[C@@H]2CC[C@@H](OCCO)[C@H](OC)C2)CC(=O)[C@H](C)/C=C(\C)[C@@H](O)[C@@H](OC)C(=O)[C@H](C)C[C@H](C)/C=C/C=C/C=C/1C [Everolimus]	relative cell number	sgRNA knockout: sgATF3, 10 nM	74.9 ± 7.7
same	relative cell number	sgRNA knockout: sgATF4, 10 nM	54.3 ± 22
same	relative cell number	sgRNA knockout: sgATF6, 100 nM	108 ± 18
same	relative cell number	sgRNA knockout: sgATG7, 1 nM	65.2 ± 4
same	relative cell number	sgRNA knockout: sgHSF1, 1 nM	65.7 ± 10
same	relative cell number	sgRNA knockout: sgHSF2, 1 nM	78.6 ± 25
same	relative cell number	[7]	80.89 ± 0.3
same	relative cell number	[11]	83.9 ± 4.9
same	relative cell number	[12]	83.1 ± 46
same	relative cell number	[15]	76.9 ± 7.6
Nc1nc(OCc2cc(Br)cs2)c2[nH]cnc2n1 [Lomeguatrib]	relative cell number	sgRNA knockout: sgATF3, 100 nM	107 ± 11
same	relative cell number	sgRNA knockout: sgATF6, 10 nM	115 ± 49
same	relative cell number	sgRNA knockout: sgATG7, 100 nM	90.7 ± 10
same	relative cell number	[4]	104 ± 13
same	relative cell number	[20]	86.9 ± 8.3
same	relative cell number	[21]	92.2 ± 6.3
same	relative cell number	sgRNA knockout: sgHSF1, 100 nM	117 ± 20
same	relative cell number	[6]	84.8 ± 1.9
same	relative cell number	sgRNA knockout: sgHSF2, 100 nM	96.4 ± 9.3
same	relative cell number	[11]	89.3 ± 3.5
same	relative cell number	[25]	99.7 ± 5.5
same	relative cell number	[15]	99.2 ± 19
same	relative cell number	sgRNA knockout: sgXBP1, 100 nM	109 ± 26
same	relative cell number	[27]	79.841 ± 0.053
CC(C)n1c(/C=C/C(O)CC(O)CC(=O)O)c(-c2ccc(F)cc2)c2ccccc21 (configuration not stated) [Fluvastatin]	relative cell number	[17]	15.7 ± 1.4
same	relative cell number	[2]	35 ± 5.7
same	relative cell number	[18]	27.2 ± 14
same	relative cell number	sgRNA knockout: sgATF6, 10 nM	67.9 ± 7.4
same	relative cell number	sgRNA knockout: sgATF6, 100 nM	87.4 ± 32
same	relative cell number	[3]	35.7 ± 6.8
same	relative cell number	sgRNA knockout: sgERN1, 10 nM	84 ± 4.5
same	relative cell number	sgRNA knockout: sgHSF2, 100 nM	105 ± 12
same	relative cell number	[9]	46.5 ± 7.5
same	relative cell number	[11]	106 ± 2.3
same	relative cell number	[13]	87.2 ± 25
same	relative cell number	[15]	32.8 ± 4.2
